Reference: publication PMC9133112, “The structural basis of Cdc7-Dbf4 kinase dependent targeting and phosphorylation of the MCM2-7 double hexamer” (Nature Communications, 2022)
These are yes or no findings as the source states them, for the method shown. Some binding calls cover weakened binding; strength is not graded here.

Chains of the proteins cited; added tags and fusions are not shown. Lines headed by an entry give the natural chain unless they say otherwise; changes in a name come on top.
UniProt P29469: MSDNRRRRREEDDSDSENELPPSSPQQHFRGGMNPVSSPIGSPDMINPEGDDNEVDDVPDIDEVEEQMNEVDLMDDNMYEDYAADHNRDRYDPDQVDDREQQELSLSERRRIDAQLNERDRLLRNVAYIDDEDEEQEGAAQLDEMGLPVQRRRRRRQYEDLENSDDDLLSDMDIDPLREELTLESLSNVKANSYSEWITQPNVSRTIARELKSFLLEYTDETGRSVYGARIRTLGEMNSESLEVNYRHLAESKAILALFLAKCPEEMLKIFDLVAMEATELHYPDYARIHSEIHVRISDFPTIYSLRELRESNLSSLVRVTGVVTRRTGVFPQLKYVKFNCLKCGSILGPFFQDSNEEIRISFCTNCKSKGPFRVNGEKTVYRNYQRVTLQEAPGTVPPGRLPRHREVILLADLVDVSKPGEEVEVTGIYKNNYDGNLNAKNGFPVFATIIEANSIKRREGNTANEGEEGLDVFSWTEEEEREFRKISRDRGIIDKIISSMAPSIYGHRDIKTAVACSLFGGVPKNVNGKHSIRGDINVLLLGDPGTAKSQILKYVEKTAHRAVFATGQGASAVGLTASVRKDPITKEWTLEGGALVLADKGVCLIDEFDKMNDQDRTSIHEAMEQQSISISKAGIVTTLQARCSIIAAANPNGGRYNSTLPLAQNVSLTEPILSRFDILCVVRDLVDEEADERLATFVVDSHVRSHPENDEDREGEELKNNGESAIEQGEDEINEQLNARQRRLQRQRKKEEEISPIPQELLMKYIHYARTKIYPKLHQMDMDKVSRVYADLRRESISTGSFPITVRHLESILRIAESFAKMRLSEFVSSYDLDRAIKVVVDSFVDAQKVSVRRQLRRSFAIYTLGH
UniProt P24279: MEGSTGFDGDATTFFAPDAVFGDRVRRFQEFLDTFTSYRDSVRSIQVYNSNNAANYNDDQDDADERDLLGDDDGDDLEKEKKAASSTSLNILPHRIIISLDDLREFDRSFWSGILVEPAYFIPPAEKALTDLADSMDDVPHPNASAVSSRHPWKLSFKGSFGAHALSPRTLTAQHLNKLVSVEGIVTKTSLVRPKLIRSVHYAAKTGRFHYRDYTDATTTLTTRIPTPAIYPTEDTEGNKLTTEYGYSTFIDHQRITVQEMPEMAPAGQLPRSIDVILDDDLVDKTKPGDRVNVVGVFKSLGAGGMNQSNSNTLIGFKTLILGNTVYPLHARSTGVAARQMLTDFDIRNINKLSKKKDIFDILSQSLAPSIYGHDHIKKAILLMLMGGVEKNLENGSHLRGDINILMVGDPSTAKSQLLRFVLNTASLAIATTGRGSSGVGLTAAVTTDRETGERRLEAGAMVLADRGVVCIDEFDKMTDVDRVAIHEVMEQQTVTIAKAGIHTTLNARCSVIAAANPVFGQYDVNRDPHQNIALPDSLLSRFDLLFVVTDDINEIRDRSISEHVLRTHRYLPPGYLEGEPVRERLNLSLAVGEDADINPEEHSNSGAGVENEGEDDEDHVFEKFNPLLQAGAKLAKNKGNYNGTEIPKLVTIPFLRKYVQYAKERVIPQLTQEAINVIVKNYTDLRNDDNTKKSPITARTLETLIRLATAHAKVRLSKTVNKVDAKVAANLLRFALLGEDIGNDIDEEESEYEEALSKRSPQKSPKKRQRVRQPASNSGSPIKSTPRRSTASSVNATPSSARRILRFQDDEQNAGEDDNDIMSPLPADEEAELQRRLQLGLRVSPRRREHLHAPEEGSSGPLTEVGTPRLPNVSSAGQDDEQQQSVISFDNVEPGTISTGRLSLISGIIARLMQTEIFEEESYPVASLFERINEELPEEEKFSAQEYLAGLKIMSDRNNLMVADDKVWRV
UniProt P30665: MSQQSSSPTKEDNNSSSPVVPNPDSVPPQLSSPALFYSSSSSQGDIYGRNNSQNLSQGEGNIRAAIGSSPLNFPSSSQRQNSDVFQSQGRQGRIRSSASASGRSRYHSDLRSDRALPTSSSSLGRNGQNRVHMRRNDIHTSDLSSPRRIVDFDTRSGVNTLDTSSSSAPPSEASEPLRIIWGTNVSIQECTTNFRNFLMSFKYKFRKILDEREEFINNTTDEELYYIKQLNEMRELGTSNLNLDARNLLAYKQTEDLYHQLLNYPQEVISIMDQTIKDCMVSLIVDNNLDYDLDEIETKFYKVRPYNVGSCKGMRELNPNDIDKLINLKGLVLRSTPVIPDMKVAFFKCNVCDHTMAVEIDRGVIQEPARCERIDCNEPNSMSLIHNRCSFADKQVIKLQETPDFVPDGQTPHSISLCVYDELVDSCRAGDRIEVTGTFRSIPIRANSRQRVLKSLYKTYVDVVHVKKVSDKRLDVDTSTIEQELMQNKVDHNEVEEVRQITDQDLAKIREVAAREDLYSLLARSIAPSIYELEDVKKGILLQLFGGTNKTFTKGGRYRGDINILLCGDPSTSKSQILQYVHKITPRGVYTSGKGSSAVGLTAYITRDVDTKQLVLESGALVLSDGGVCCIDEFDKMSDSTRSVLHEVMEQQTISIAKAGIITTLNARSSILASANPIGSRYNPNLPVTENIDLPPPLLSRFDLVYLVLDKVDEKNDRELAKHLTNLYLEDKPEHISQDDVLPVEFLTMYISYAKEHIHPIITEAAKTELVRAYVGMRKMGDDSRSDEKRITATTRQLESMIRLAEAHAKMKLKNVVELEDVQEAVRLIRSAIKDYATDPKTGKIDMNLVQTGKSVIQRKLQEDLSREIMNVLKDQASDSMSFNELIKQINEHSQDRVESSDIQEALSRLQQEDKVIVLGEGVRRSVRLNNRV
UniProt P29496: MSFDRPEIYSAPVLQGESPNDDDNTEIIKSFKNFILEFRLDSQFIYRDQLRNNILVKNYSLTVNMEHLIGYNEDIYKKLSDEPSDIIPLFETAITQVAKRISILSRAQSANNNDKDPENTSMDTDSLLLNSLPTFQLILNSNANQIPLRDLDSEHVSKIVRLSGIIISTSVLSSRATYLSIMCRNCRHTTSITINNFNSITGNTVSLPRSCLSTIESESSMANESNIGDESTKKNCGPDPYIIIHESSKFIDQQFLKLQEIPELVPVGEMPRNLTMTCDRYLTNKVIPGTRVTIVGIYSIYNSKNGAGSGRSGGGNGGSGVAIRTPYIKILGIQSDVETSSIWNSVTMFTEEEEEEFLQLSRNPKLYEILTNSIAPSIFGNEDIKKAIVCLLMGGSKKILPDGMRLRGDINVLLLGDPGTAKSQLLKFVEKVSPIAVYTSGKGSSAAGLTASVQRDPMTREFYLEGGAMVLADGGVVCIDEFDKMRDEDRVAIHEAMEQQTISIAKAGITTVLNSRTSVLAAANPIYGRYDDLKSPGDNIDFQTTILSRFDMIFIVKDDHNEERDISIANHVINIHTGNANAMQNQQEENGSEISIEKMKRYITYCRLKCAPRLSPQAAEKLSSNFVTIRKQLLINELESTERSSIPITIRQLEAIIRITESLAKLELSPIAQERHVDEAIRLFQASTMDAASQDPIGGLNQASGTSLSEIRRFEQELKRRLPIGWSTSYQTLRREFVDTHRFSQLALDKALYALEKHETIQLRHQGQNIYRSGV
UniProt P53091: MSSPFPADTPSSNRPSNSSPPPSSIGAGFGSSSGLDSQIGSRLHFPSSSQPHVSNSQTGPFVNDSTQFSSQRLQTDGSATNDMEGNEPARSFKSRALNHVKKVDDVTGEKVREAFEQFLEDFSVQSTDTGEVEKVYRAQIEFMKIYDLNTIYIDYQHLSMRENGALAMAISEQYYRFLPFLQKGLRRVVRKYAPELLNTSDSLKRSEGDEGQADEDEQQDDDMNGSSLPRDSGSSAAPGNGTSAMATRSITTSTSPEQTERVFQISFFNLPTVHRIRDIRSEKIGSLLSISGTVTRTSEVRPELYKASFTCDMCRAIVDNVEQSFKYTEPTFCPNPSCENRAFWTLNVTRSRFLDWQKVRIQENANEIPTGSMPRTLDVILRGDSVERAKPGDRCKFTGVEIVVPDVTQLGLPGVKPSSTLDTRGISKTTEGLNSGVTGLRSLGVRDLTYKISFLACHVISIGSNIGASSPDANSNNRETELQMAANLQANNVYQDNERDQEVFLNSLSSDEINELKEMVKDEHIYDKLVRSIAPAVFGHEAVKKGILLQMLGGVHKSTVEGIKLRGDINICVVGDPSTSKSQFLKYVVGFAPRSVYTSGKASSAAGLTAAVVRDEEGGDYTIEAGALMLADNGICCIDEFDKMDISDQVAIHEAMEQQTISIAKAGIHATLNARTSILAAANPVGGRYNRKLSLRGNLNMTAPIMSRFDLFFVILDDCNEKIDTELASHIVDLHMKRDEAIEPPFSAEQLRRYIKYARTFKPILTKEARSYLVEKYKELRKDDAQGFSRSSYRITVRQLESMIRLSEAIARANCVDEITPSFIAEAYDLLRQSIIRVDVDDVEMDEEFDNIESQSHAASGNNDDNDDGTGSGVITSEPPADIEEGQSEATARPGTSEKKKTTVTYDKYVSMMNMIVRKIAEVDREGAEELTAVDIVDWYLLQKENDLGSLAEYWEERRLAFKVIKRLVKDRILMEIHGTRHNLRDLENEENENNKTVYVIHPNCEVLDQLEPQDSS
UniProt P38132: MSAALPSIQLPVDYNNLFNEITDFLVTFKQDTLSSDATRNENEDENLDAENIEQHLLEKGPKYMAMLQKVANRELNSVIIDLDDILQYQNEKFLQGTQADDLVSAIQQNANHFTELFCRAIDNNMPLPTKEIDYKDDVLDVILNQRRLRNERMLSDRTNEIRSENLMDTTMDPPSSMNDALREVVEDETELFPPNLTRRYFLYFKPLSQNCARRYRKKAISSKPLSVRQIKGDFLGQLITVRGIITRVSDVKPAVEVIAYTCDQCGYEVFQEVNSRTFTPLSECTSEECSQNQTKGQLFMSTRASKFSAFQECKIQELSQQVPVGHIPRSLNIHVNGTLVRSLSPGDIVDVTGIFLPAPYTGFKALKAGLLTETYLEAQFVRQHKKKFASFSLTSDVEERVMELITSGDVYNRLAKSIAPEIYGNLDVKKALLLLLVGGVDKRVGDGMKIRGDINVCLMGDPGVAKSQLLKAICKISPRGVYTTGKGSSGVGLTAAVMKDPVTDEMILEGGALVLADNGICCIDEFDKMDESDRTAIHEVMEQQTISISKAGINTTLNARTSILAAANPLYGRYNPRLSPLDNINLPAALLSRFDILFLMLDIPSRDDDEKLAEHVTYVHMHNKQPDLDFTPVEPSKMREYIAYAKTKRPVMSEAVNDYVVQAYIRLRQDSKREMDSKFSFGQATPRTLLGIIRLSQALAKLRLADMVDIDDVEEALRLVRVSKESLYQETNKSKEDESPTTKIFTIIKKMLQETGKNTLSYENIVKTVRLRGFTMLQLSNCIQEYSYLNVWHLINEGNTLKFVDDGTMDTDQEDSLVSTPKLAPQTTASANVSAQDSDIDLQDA
UniProt P06243: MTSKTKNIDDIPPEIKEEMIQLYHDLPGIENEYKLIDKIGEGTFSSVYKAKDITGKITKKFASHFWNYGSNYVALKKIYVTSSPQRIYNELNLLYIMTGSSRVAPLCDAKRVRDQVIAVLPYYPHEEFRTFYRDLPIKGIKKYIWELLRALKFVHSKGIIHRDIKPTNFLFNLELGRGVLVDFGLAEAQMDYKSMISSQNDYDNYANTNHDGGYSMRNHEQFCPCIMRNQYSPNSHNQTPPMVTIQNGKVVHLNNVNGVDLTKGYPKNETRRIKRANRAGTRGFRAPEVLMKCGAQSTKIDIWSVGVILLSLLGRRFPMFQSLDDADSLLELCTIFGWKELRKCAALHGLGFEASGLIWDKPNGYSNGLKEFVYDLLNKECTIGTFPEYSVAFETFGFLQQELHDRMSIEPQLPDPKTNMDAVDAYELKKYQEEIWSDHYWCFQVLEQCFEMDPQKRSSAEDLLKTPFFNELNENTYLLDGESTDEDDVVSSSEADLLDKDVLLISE

Columns and labels:
[1] = biological target: T1, MCM2-7 double hexamer (Saccharomyces cerevisiae) (UniProt P29469+P24279+P30665+P29496+P53091+P38132); test: pull-down; DH-DDK interaction assay: DH assembled on 10xARS DNA-beads, high salt washed, 50 nM DDK added 30 min 24 °C in pre-RC buffer (3 mM ATP), washed, eluted by DNase I, SDS-PAGE; both purified
[2] = biological target: T1, MCM2-7 double hexamer (Saccharomyces cerevisiae); test: cryo-EM structure; MD-(ADP:BeF3): 250 nM DH + 750 nM DDK, buffer C with ADP:BeFx (3 mM ADP, 15 mM NaF, 3 mM BeCl2); GraFix; state I and swiveled states; both purified
[3] = biological target: T1, MCM2-7 double hexamer (Saccharomyces cerevisiae); test: co-sedimentation; 15–45% glycerol gradient without glutaraldehyde, 250 nM DH + 750 nM DDK, buffer C with nucleotide, 16 h at 4 °C; fractions analysed by SDS-PAGE; both purified
[4] = biological target: T1, MCM2-7 double hexamer (Saccharomyces cerevisiae); test: cryo-EM structure; MD-(ATPγS): 250 nM DH released from beads by AluI + 750 nM DDK, 10 min 24 °C, buffer C with 3 mM ATPγS; GraFix glycerol gradient with glutaraldehyde; states I-III; both purified
[5] = biological target: T1, MCM2-7 double hexamer (Saccharomyces cerevisiae); test: pull-down; bead-based origin assembly assay at 24 °C (Supplementary Fig. 1g); DDK concentration not given; both purified
[6] = biological target: T1, MCM2-7 double hexamer (Saccharomyces cerevisiae); test: pull-down; DH-DDK interaction assay: DH assembled on 10xARS DNA-beads, high salt washed, 150 nM DDK added 30 min 24 °C in pre-RC buffer (3 mM ATP), washed, eluted by DNase I, SDS-PAGE; both purified
[7] = biological target: T1, MCM2-7 double hexamer (Saccharomyces cerevisiae); test: cryo-EM structure; MD-(ATP) with DNA: DH on beads phosphorylated by 400 nM DDK 30 min 24 °C with ATP, eluted by AluI, crosslinked at once with 0.1% glutaraldehyde; both purified
[8] = biological target: T1, MCM2-7 double hexamer (Saccharomyces cerevisiae); test: pull-down; DH-DDK interaction assay on DNA-beads with different DDK protein and salt concentrations (Fig. 2f; values only in the figure); both purified

binding [1]	binding [2]	binding [3]	binding [4]	binding [5]	binding [6]	binding [7]	binding [8]	Substance
binds	binds	binds	binds	binds	binds	binds	–	Dbf4-dependent Cdc7 kinase (DDK), wild type (from UniProt P06243 1-507; P32325 1-704) (complex)
–	–	–	–	–	binds	–	–	DDK with Dbf4 Δmotif N (from UniProt P06243 1-507; P32325 1-704) (complex)
no binding (tested: 50 nM DDK)	–	–	–	–	no binding (tested: 150 nM DDK)	–	no binding	DDK with Dbf4 Δ220 (from UniProt P06243 1-507; P32325 1-704) (complex)
binds	–	–	–	–	binds	–	–	DDK with Dbf4 Δ110 (from UniProt P06243 1-507; P32325 1-704) (complex)
